According to PubChem BioAssay AID445 (National Center for Advancing Translational Sciences (NCATS), 2006):
Where “and” joins values, the source holds several entries; their conditions need not be identical. Equal values may be shown once. This is one part of the list. Further columns of the screen follow, without active or inactive calls. The list favours compounds with an active or inconclusive main result. Words in brackets tell the shape of the fitted curve; partial curves, single points and poor fits give uncertain potencies.

Test: IkB Signaling
Settings: ABC-DLBCL IkBa-CBG/CBR dual luciferase ratio (green luciferase fused to IkBa over red control in OCI-Ly3 lymphoma cells), 4 h
In short: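 Curves were fitted separately to fusion (green), unfused (red) and ratio luminescence, then classed by r2, magnitude and activity. Cells: OCI-Ly3, 4 h compound plus doxycycline at 37C; 10 uM MG-132 defined full response.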

[1] = measured here: control luc red channel unless noted
[2] = measured here: IkB-luc green channel
[3] = measured here: control luc red channel

Which AC50 [1] does the source give for `COc1ccccc1N1CCN(S(=O)(=O)c2c(C)sc3ncn(CC(=O)Nc4ccc(C(F)(F)F)cc4)c(=O)c23)CC1` here?
Its AC50 is 3.98 µM [falling, full curve].

Which AC50 [1] does the source give for `Cc1ccc(-c2ccc(=O)n(CC(=O)N3CCN(c4cccc(C)c4)C(C)C3)n2)cc1` (configuration not stated) here?
The AC50 was 20 µM [falling, partial curve].

Which AC50 [1] does the source give for `CC(=O)c1ccc(NC(=O)C2CCCN(S(=O)(=O)c3ccc4c(c3)CCCN4C(C)=O)C2)cc1` (configuration not stated) here?
The AC50 was 31.6 µM [falling, partial curve].

With `Cc1ccc(OCC(=O)Nc2ccccc2C(=O)OCc2cc(=O)n3ccsc3n2)cc1C` as the compound, how does the AC50 [1] read?
Its AC50 is 3.16 µM [falling, full curve].

Which AC50 [1] does the source give for `COc1ccccc1-c1nnc(SCC(=O)NC2CCCCC2)o1` here?
The AC50 was 1.58 µM [falling, full curve].

Which AC50 [1] does the source give for `CCOC(=O)c1c(NC(=O)Cc2coc3cc(C)ccc23)sc2c1CCCC2` here?
Its AC50 is 0.251 µM [falling, full curve].

Which AC50 [1] does the source give for `CCC1CN(C(=O)N2CCC(C(=O)Nc3cc(C)ccc3C)CC2)c2ccccc2O1` (configuration not stated) here?
The AC50 was 25.1 µM [falling, partial curve].

With `O=C(Nc1nc2ccccc2n1CCOc1ccc(Cl)cc1)c1ccco1` as the compound, how does the AC50 [1] read?
Its AC50 is 25.1 µM [rising, single point] [measured here: IkB-luc green channel].

Which AC50 [1] does the source give for `COc1ccc(C(CC(=O)Nc2cccc(C)c2C)N2Cc3ccccc3C2=O)cc1` (configuration not stated) here?
Its AC50 is 39.8 µM [falling, single point].

With `Cc1cccc(-c2cc(NC(=O)C(C)(C)C)n(-c3ccccc3)n2)c1` as the compound, how does the AC50 [1] read?
Its AC50 is 5.01 µM [rising, single point].

With `COc1cc(-c2nnc(-c3ccco3)o2)ccc1OCc1ccccc1` as the compound, how does the AC50 [1] read?
The AC50 was 39.8 µM [falling, single point].

Which AC50 [1] does the source give for `O=C(COc1ccc(F)cc1)Nc1ccccc1C(=O)OCc1cc(=O)n2nc(C3CC3)sc2n1` here?
The AC50 was 5.01 µM [falling, partial curve].

For `Cc1nc2nc(SCc3ccc(F)cc3Cl)nn2c(C)c1Cc1ccccc1`, which AC50 [1] is on record?
The AC50 was 39.8 µM [falling, single point].

Which AC50 [2] does the source give for `CC(NC(=O)c1ccc(Nc2nc3ccccc3n3nnnc23)cc1)c1ccccc1` (configuration not stated) here?
Its AC50 is 31.6 µM [rising, partial curve].

What about the AC50 [3] of the same compound?
Its AC50 is 0.398 µM [falling, full curve].

Which AC50 [1] does the source give for `COc1cccc(N2CC(NC(=O)c3ccc4c(c3)OCO4)CC2=O)c1` (configuration not stated) here?
Its AC50 is 7.94 µM [rising, single point].

For `CCOc1ccc(S(=O)(=O)N(CC(=O)N2CCc3ccccc32)Cc2ccco2)cc1`, which AC50 [1] is on record?
Its AC50 is 10 µM [falling, partial curve].

For `COC(=O)C1=C(C)N(c2cc(Cl)cc(Cl)c2)C(=O)C1`, which AC50 [1] is on record?
The AC50 was 1.26 µM [falling, full curve].

With `CC1CCN(S(=O)(=O)c2cc3c4c(c2)CC(=O)N4CCC3)CC1` as the compound, how does the AC50 [1] read?
Its AC50 is 6.31 µM [rising, single point].

Which AC50 [1] does the source give for `Cc1ccc(-c2c(C)n3c4c(=O)n(C)c(=O)n(C)c4nc3n2-c2cccc(O)c2)cc1` here?
The AC50 was 25.1 µM [falling, partial curve].

For `CCOC(=O)c1cc(S(=O)(=O)N2CCN(c3cc(C)ccc3C)CC2)[nH]n1`, which AC50 [1] is on record?
Its AC50 is 25.1 µM [falling, single point].

For `O=CCCCC=O`, which AC50 [1] is on record?
Its AC50 is 10 µM [rising, partial curve] [measured here: IkB-luc green channel].

Which results are given for `Cc1cc(C)n(CC(O)CN2c3ccccc3Sc3ccccc32)n1` (configuration not stated)?
AC50 [2]: 20 µM [falling, partial curve]; AC50 [3]: 12.6 µM [falling, partial curve]

For `CCOC(=O)c1ccc(NC(=O)CCc2nc(-c3ccccc3Cl)no2)cc1`, which AC50 [1] is on record?
Its AC50 is 20 µM [falling, partial curve].

With `O=C(Nc1ccc2c(c1)nc1n2CCCCC1)c1cc(S(=O)(=O)N2CCOCC2)ccc1Cl` as the compound, how does the AC50 [1] read?
Its AC50 is 15.8 µM [falling, partial curve].

With `CCCN(CCC)C(=O)CSc1nc2ccccc2c(=O)n1Cc1ccco1` as the compound, how does the AC50 [1] read?
Its AC50 is 20 µM [falling, partial curve].

For `COCCCNc1nc2cc(OC)c(OC)cc2c2nc(-c3ccccc3)nn12`, which AC50 [1] is on record?
The AC50 was 0.126 µM [falling, full curve].

With `CCCCOC(=O)CNc1nnc(SCC(=O)OCC)[nH]c1=O` as the compound, how does the AC50 [2] read?
Its AC50 is 10 µM [rising, partial curve].

What about the AC50 [3] of the same compound?
The AC50 was 6.31 µM [rising, single point].

For `COc1ccc(CNC(=O)CN2N=C(c3ccccc3)CCC2=O)c(OC)c1`, which AC50 [1] is on record?
The AC50 was 20 µM [falling, partial curve, poor fit].

For `COc1cc(Cl)c(C)cc1NC(=O)c1ccc2c(SCC(=O)O)c3c(nc2c1)CCCC3`, which AC50 [1] is on record?
The AC50 was 10 µM [falling, partial curve].

For `O=C(CSc1n[nH]c(-c2ccccc2)n1)NCCCc1ccccc1`, which AC50 [1] is on record?
The AC50 was 31.6 µM [falling, single point].

With `CC(C)CCNC(=O)c1ccc2c(c1)N(Cc1cccc(Cl)c1)C(=O)c1ccccc1S2` as the compound, how does the AC50 [1] read?
Its AC50 is 25.1 µM [falling, partial curve].

For `Cc1cc2nn(-c3ccc(F)cc3)nc2cc1NC(=O)c1cccc2ccccc12`, which AC50 [1] is on record?
Its AC50 is 0.398 µM [rising, full curve, poor fit].

Which results are given for `Nc1nc(N)c2nc(-c3ccccc3)c(N)nc2n1`?
AC50 [2]: 39.8 µM [rising, partial curve, poor fit]; AC50 [3]: 12.6 µM [rising, partial curve] and 15.8 µM [rising, partial curve]

Which AC50 [1] does the source give for `O=C(OCc1csc(-c2ccccc2)n1)c1cccs1` here?
Its AC50 is 25.1 µM [falling, partial curve].

For `Cc1ccc(OCC(=O)Nc2ccc3c(c2)nc(CCNC(=O)c2ccco2)n3C)cc1`, which AC50 [1] is on record?
The AC50 was 10 µM [falling, partial curve].

With `CCCc1c(OCCCOc2ccc(OCC(=O)O)cc2)ccc(CC=O)c1O` as the compound, how does the AC50 [1] read?
The AC50 was 39.8 µM [falling, single point].

Which AC50 [1] does the source give for `O=C(Nc1ccc2oc(-c3cccnc3)nc2c1)c1ccc(-c2ccc(OC(F)(F)F)cc2)o1` here?
Its AC50 is 3.98 µM [falling, partial curve].

For `COc1ccc(N2CCN(C(=O)CN3C(=O)CSc4c3c(C)nn4-c3ccccc3)CC2)cc1`, which AC50 [1] is on record?
The AC50 was 3.16 µM [rising, partial curve] [measured here: IkB-luc green channel].
